This assay addresses VKORC1 (UniProt Q9BQB6). Briefly: NP40-soluble protein abundance relative to vehicle (solubility fold change) (ratio); higher = more soluble protein in presence of AMP-PNP. In a few lines: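 Across three independent experiments, values are fold changes against the detergent-processed vehicle for each replicate, based on vsn-normalised intensities. The samples were Jurkat crude lysate treated with eight concentrations (0.1 to 10 mM) for 10 min at room temperature and then 3 min at 37 °C. Lysate was solubilised with 0.8% NP40 and benzonase, ultracentrifuged, and the supernatant analysed by TMT-labelled LC-MS/MS.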

± gives the standard deviation of the averaged measurements. The entries are a selection whose mix differs from that of the whole data set. Most values lie at the level of the controls, where differences are scatter.

These results are taken from the supplement of paper PMC6411743.

For the compound `Nc1ncnc2c1ncn2[C@@H]1O[C@H](COP(=O)(O)OP(=O)(O)NP(=O)(O)O)[C@@H](O)[C@H]1O` [adenylyl imidodiphosphate], the NP40-soluble protein abundance is, setting by setting: (concentration: 0.1mM) 0.9692 ± 0.0025; (concentration: 0.5mM) 0.976 ± 0.05.
